Results from publication doi:10.1101/2025.10.24.684325.
No constants are given. Whether binding was seen depends on the method and setting. Binding seen in cells or lysates may run through a third protein. Some results given as binding are weak or reduced against the parent protein; the word gives no strength.

Biological target: T1, TMEM100 (transmembrane protein 100), precipitated with anti-TMEM100 (mouse (endogenous in PVECs)) (UniProt Q9CQG9)
T1 sequence: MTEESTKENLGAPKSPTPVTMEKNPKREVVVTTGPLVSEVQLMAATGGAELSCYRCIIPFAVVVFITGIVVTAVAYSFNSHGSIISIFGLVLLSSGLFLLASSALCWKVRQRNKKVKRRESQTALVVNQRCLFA
Assay: co-IP

- binding: binds
B1: PRDX1 (protein, UniProt P35700 1-199)
chain: MSSGNAKIGYPAPNFKATAVMPDGQFKDISLSEYKGKYVVFFFYPLDFTFVCPTEIIAFSDRADEFKKLNCQVIGASVDSHFCHLAWINTPKKQGGLGPMNIPLISDPKRTIAQDYGVLKADEGISFRGLFIIDDKGILRQITINDLPVGRSVDEIIRLVQAFQFTDKHGEVCPAGWKPGSDTIKPDVNKSKEYFSKQK
